From publication PMC4023886
No constants are given. Whether binding was seen depends on the method and setting. In cells and extracts the contact can be indirect. Some results given as binding are weak or reduced against the parent protein; the word gives no strength.

Sequences of proteins named here, by UniProt entry; tags and fusion partners are left off.
UniProt P29590: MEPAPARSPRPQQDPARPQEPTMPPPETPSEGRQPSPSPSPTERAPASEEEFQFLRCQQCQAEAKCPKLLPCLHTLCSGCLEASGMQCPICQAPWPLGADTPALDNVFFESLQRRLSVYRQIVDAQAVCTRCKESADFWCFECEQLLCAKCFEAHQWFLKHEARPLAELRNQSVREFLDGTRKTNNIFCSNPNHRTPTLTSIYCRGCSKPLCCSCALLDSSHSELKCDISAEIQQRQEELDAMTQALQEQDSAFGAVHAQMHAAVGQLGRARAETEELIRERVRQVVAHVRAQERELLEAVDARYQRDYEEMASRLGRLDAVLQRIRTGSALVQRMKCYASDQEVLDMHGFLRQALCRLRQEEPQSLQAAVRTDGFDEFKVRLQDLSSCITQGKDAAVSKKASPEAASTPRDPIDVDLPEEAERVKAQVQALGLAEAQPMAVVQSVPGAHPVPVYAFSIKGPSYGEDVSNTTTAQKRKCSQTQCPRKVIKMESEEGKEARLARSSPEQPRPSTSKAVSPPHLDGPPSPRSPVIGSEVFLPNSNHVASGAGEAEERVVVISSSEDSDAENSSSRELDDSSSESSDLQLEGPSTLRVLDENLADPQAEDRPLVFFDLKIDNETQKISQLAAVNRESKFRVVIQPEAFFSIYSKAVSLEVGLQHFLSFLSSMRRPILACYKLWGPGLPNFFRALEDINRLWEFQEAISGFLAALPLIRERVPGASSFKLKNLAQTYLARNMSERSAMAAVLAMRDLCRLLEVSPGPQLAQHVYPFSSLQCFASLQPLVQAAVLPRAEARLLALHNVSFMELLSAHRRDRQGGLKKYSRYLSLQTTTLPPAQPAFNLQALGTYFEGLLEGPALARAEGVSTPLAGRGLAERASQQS
UniProt Q16665: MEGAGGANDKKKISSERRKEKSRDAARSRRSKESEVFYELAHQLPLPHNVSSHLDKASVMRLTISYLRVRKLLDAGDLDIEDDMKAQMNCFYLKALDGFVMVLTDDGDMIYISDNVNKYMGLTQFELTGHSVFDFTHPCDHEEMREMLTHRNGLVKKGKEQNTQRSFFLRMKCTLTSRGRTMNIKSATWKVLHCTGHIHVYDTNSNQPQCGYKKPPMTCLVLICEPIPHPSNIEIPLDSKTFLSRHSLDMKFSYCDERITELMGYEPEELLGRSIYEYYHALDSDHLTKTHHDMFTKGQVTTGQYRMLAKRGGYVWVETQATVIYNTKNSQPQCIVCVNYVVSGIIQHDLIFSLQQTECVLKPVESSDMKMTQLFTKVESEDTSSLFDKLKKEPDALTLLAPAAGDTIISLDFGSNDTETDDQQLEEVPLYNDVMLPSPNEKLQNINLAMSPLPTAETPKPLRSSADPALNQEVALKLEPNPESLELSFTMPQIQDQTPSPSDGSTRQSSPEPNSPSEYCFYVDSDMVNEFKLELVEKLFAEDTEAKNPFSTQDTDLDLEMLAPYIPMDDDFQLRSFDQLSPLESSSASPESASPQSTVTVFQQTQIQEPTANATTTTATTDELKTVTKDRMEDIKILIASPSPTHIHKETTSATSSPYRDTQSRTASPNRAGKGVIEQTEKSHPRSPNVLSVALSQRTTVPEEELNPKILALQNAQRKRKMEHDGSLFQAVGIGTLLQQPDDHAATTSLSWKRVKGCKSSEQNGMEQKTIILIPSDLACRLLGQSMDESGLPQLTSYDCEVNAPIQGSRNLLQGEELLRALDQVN

Target: PML, endogenous in NB4 cells (human (endogenous in NB4)) (UniProt P29590)
Experiment: co-IP; NB4 cells treated with CoCl2 (100 μM, 24 h), endogenous proteins; mild cross-linking with 0.4% formaldehyde (7 min at RT); lysis in CO-IP buffer (10 mM NaCl, 10 mM Tris-HCl pH 7.5, 5 mM MgCl2, 0.5% CHAPS), brief sonication; total lysates immunoprecipitated with PML antibody PG-M3

binding: binds
Substance: endogenous HIF-1α in NB4 cells (from UniProt Q16665 1-826)
